Values from PubChem BioAssay AID1159578 (Peter MacCallum Cancer Centre, 2015).

- Screen: 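Genome-wide hunt for genes controlling movement of lymphatic endothelial cells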 (primary screen)
- System: human lymphatic endothelial cells
- Reagents: siRNA pool against human genes, 40 nM
- Duration: 48 h after transfection
- Read-out: 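High-content imaging of dye-stained cells in a scratch assay measures filled wound area and nuclei per well; duplicate means given as ratio to mock and robust z-score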
- Scale: migration robust z-score: higher = faster migration into the scratch; migration relative to mock: higher = more scratch area covered than mock; nuclei per well: higher = more cells in the well
- Call rule: 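Migration changed when robust z exceeds 2 or falls below -2 and mean nuclei number is at least 3300; otherwise not called changed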
- Calls: active = migration changed; inactive = no migration change, or too few cells
In all, the deposit lists about 18,000 reagents; below is a random part of them. About 1,030 of all reagents (5.7%) were called active. 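Inactive calls also include pools with fewer than 3300 nuclei, whose migration was not assessed.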 Raw values are not corrected between plates. Entries without a mark were called inactive. Reagent sequences are not shown.

| target gene | migration robust z-score | migration class with cell-count check | migration relative to mock | nuclei per well, duplicate mean |
| --- | --- | --- | --- | --- |
| GATAD2B | -0.88 | migration z between -2 and 2; enough cells | 0.64 | 3978 |
| SLC25A53 | -0.12 | migration z between -2 and 2; enough cells | 0.86 | 5304 |
| NTRK1 | 0.52 | migration z between -2 and 2; enough cells | 0.9 | 5710 |
| SCN1B | -2.54 (active) | migration z below -2; enough cells | 0.32 | 3440 |
| AGXT | 0.29 | migration z between -2 and 2; enough cells | 0.86 | 4634 |
| DENND4C | -0.28 | migration z between -2 and 2; enough cells | 0.81 | 6600 |
| DCTD | 0.49 | migration z between -2 and 2; enough cells | 0.9 | 6211 |
| CACNA1I | -0.1 | migration z between -2 and 2; enough cells | 0.78 | 6180 |
| ALDH16A1 | -0.52 | migration z between -2 and 2; enough cells | 0.7 | 5796 |
| GPT | 0.13 | migration z between -2 and 2; enough cells | 0.83 | 4900 |
| CTLA4 | 1.69 | migration z between -2 and 2; enough cells | 1.33 | 6037 |
| HPD | -1.22 | migration z between -2 and 2; enough cells | 0.57 | 5969 |
| RETSAT | 1.73 | migration z between -2 and 2; enough cells | 1.34 | 6686 |
| PELI1 | -0.11 | migration z between -2 and 2; enough cells | 0.86 | 6051 |
| OR5M9 | 0.85 | migration z between -2 and 2; enough cells | 1.1 | 5746 |
| ATP6V1B2 | 0.46 | migration z between -2 and 2; enough cells | 0.9 | 6462 |
| H2AC4 | -0.52 | migration z between -2 and 2; enough cells | 0.75 | 5496 |
| FBXO48 | 0.96 | migration z between -2 and 2; enough cells | 0.99 | 5417 |
| ZMYM6 | -0.62 | migration z between -2 and 2; enough cells | 0.72 | 4363 |
| MYDGF | -1.56 | migration z between -2 and 2; enough cells | 0.5 | 3414 |
| ALG11 | 0.44 | migration z between -2 and 2; enough cells | 1 | 5161 |
| SGCZ | 0.16 | migration z between -2 and 2; enough cells | 0.93 | 6316 |
| OTOA | 0.4 | migration z between -2 and 2; enough cells | 0.99 | 5615 |
| SWAP70 | -0.82 | migration z between -2 and 2; enough cells | 0.68 | 5204 |
| NOP58 | 1 | migration z between -2 and 2; enough cells | 1.15 | 5513 |
| IFT70B | -0.72 | migration z between -2 and 2; enough cells | 0.7 | 5677 |
| SLC22A12 | 0.39 | migration z between -2 and 2; enough cells | 0.88 | 5879 |
| CALCR | 0.24 | migration z between -2 and 2; enough cells | 0.85 | 6726 |
| CDRT4 | -0.08 | migration z between -2 and 2; enough cells | 0.86 | 5898 |
| TMEM132B | 0.49 | migration z between -2 and 2; enough cells | 1.01 | 6503 |
| PGP | 1.53 | migration z between -2 and 2; enough cells | 1.1 | 5236 |
| CAMK2B | -6.3 | under 3300 nuclei; migration not judged | -0.41 | 2916 |
| ANXA13 | 0.37 | migration z between -2 and 2; enough cells | 0.98 | 7054 |
| KRR1 | -0.08 | migration z between -2 and 2; enough cells | 0.86 | 6064 |
| MAGEA6 | -0.34 | migration z between -2 and 2; enough cells | 0.8 | 6792 |
| TMEM237 | -0.2 | migration z between -2 and 2; enough cells | 0.84 | 4926 |
| CST6 | 0.51 | migration z between -2 and 2; enough cells | 1.02 | 5699 |
| VSTM2A | 0.02 | migration z between -2 and 2; enough cells | 0.88 | 6492 |
| TAF1A | 1.9 | migration z between -2 and 2; enough cells | 1.17 | 6244 |
| PODXL | 1.06 | migration z between -2 and 2; enough cells | 1.16 | 6918 |
| MPHOSPH8 | 0 | migration z between -2 and 2; enough cells | 0.89 | 5852 |
| LINC02913 | -0.06 | migration z between -2 and 2; enough cells | 0.87 | 6500 |
| EPG5 | -1.23 | migration z between -2 and 2; enough cells | 0.56 | 3876 |
| CELF5 | -1.52 | migration z between -2 and 2; enough cells | 0.5 | 5068 |
| ACR | -1.03 | migration z between -2 and 2; enough cells | 0.6 | 5360 |
| RRP7A | 0.17 | migration z between -2 and 2; enough cells | 0.93 | 5594 |
| RDM1 | -1.54 | migration z between -2 and 2; enough cells | 0.48 | 5896 |
| PSMD5 | 0.55 | migration z between -2 and 2; enough cells | 1.02 | 6886 |
| FRMD6 | 0.98 | migration z between -2 and 2; enough cells | 1.14 | 7380 |
| PHF5A | -1.09 | migration z between -2 and 2; enough cells | 0.6 | 5118 |
| OVCH1 | -0.24 | migration z between -2 and 2; enough cells | 0.76 | 5975 |
| RPS4Y2 | 0.17 | migration z between -2 and 2; enough cells | 0.93 | 6340 |
| NPBWR1 | 0.39 | migration z between -2 and 2; enough cells | 0.88 | 5862 |
| PROX1 | 0.42 | migration z between -2 and 2; enough cells | 0.88 | 5370 |
| KIF4A | 1.3 | migration z between -2 and 2; enough cells | 1.06 | 4981 |
| ALPP | -1.42 | migration z between -2 and 2; enough cells | 0.53 | 3304 |
| CDC50B | 1.64 | migration z between -2 and 2; enough cells | 1.31 | 5230 |
